Library screen at single concentrations

From ChEMBL document CHEMBL3988442, “University of Dundee, Small-Polar-MMV Screening Library” (2021).

Mtb glucose medium: 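Whole-cell growth test on Mycobacterium tuberculosis, read after 3 days in glucose-containing 7H9 medium; the read-out is not stated. Tested at 50 µM. Higher reads as more growth inhibition (inferred: compounds with an IC50 in retests scored well above the rest). Of about 69,000 compounds tested this way, about 760 (1.1%) reached 50% or more in at least one test.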
Mtb cholesterol medium: 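Growth of Mycobacterium tuberculosis over 4 days (cholesterol / DPPC medium with tyloxapol); the read-out is not stated. Tested at 50 µM. Higher reads as more growth inhibition (inferred: compounds with an IC50 in retests scored well above the rest). About 69,000 compounds were tested under these conditions; 0.54% (about 370) showed 50% or more at least once.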

The filed quantity is “Percent Effect” (%).
The record does not define 0% and 100%; most values in the screen are far below 50% and negative numbers occur (in some assays of this library far below -100).
Compounds were drawn at random from those tested, without regard to their results.
Two or more numbers in one place are separate tests of the same structure; such repeats can differ widely.

SMILES: CC(C)CN1CCc2[nH]cnc2C12CCN(C(=O)c1cnn(C)c1)CC2
Mtb glucose medium: -22.13
Mtb cholesterol medium: -17.81

SMILES: CCn1ccnc1CN1CCN(CCC(=O)NC(C)(C)C)CC1C (stereo not drawn)
Mtb glucose medium: 12.63
Mtb cholesterol medium: -0.2444 and 5.11

SMILES: [H][C@@]12CN(C3CCOCC3)C[C@]1([H])N(CCc1cccc(Cl)c1)C(=O)O2
Mtb glucose medium: 2.493
Mtb cholesterol medium: -5.916 and 9.129

SMILES: COc1cc(CN2CCC(O)(c3ccc(C)cn3)CC2)cc(Cl)c1OC
Mtb glucose medium: -33.96 and -1.648
Mtb cholesterol medium: -3.205 and -1.983

SMILES: Cc1nccn1CCC(=O)N1CCC2(CCC(=O)N(CC3CC3)C2)CC1
Mtb glucose medium: -21.95
Mtb cholesterol medium: -24.26 and -3.533

SMILES: Cc1ccc(F)c(C(=O)N2CCC(Nc3ccc(C)nn3)CC2)c1
Mtb glucose medium: -9.806
Mtb cholesterol medium: 8.621

SMILES: Cc1ccc(F)c(OC2(C(=O)O)CCN(C(=O)c3ccco3)CC2)c1
Mtb glucose medium: 25.51
Mtb cholesterol medium: 11.14 and -10.96

SMILES: COc1ccc(CC(=O)Nc2cccnc2N2CCCC2)cc1OC
Mtb glucose medium: 2.386
Mtb cholesterol medium: -28.68

SMILES: Cl.Cn1ccnc1CNC(=O)c1ccnc(C2CCNCC2)c1
Mtb glucose medium: -17.98
Mtb cholesterol medium: -21.31 and -2.759

SMILES: Cc1cc(F)ccc1-n1cc(O)c(C(=O)NCC2(O)CCC2)n1
Mtb glucose medium: 4.632
Mtb cholesterol medium: -4.447

SMILES: CC(C)Nc1nc2c(cc1C(=O)O)CCN(Cc1ccsc1)CC2.O=C(O)C(F)(F)F.O=C(O)C(F)(F)F
Mtb glucose medium: -26.94
Mtb cholesterol medium: -15.77

SMILES: [H][C@]12CC[C@]([H])(CN(Cc3ccncc3)C1)N(C(=O)CCOCC)C2
Mtb glucose medium: -6.241 and -10.38
Mtb cholesterol medium: 2.542

SMILES: c1cc2c(cc1CN(Cc1nc(C3CC3)no1)C1CCCC1)OCO2
Mtb glucose medium: 26.74 and 12.42
Mtb cholesterol medium: 20.33

SMILES: O=C(O)C(F)(F)F.[H][C@]12CCC[C@@H](CN(C)CCOC)[C@@]1([H])CN(c1cc(OC)ncn1)C2
Mtb glucose medium: -12.83
Mtb cholesterol medium: -19.71

SMILES: [H][C@]12CC[C@]([H])(CN(C(=O)CCc3n[nH]c(C)c3C)C1)N(CC=C(C)C)C2=O
Mtb glucose medium: -38.83
Mtb cholesterol medium: -24.88

SMILES: CC(C)c1nc(C(=O)N2C[C@H](C(C)C)[C@@H](N)C2)cs1
Mtb glucose medium: 3.749 and 8.424
Mtb cholesterol medium: -0.2008

SMILES: COc1c(CNCc2cccc(CS(C)(=O)=O)c2)c(C)nn1C
Mtb glucose medium: -5.815
Mtb cholesterol medium: -15.94

SMILES: Cc1cnc(CN2CCCC(c3nc4ccccc4n3C(C)C)C2)o1 (stereo not drawn)
Mtb glucose medium: -12.06
Mtb cholesterol medium: -1.939

SMILES: CCc1nc(C)sc1CNC1CCN(Cc2ccccc2)C1 (stereo not drawn)
Mtb glucose medium: -20.61
Mtb cholesterol medium: -24.26

SMILES: CC(C)c1nc(C2CCCN(C(=O)CCn3cncn3)C2)no1 (stereo not drawn)
Mtb glucose medium: 0.9938 and -0.6152
Mtb cholesterol medium: -0.5154

SMILES: Cc1c(C2CCCN(C(=O)C3CC3)C2)n2c(nc1=O)CCC2.Cl (stereo not drawn)
Mtb glucose medium: 18.69
Mtb cholesterol medium: -9.957

SMILES: Cc1cc(C)n(-c2cncc(NCCNC(=O)C3CCCC3)n2)n1
Mtb glucose medium: -17.15
Mtb cholesterol medium: -17.54

SMILES: CC/C(C)=C/CCN1CCN(C)C2(CCNC(=O)CC2)C1 (stereo not drawn)
Mtb glucose medium: -1.78
Mtb cholesterol medium: 7.267

SMILES: Cn1c(Cn2ccnc2)nnc1C1CCCN(C2CCCCC2)C1 (stereo not drawn)
Mtb glucose medium: 3.801
Mtb cholesterol medium: 29.44

SMILES: Cc1noc(C)c1CNCC1CCCN1c1cccnn1 (stereo not drawn)
Mtb glucose medium: 6.151
Mtb cholesterol medium: -3.462

SMILES: O=C(CCN1CCCCO1)NC1CCCN(CC2CCCCC2)C1 (stereo not drawn)
Mtb glucose medium: 14.93
Mtb cholesterol medium: 20.06

SMILES: COc1cc(C(C)=O)ccc1OCC(=O)c1cccn1C
Mtb glucose medium: -21.83
Mtb cholesterol medium: -5.444 and -23.76

SMILES: O=C(Nc1nnc(C(F)F)s1)NC(CCO)c1cccs1 (stereo not drawn)
Mtb glucose medium: 7.955
Mtb cholesterol medium: -2.55

SMILES: Cn1ncc2c(NCCn3cccc3)nc(C3CCCC3)nc21
Mtb glucose medium: 10.76
Mtb cholesterol medium: 10.72 and 2.324

SMILES: CCc1nsc(N2CCCN(CC(=O)N(C)C3CC3)CC2)n1
Mtb glucose medium: -1.931
Mtb cholesterol medium: 3.88

SMILES: O=C(N[C@@H]1CC[C@@H](N2CCCC2)[C@@H]1O)c1cc2ccccc2[nH]1
Mtb glucose medium: -1.421
Mtb cholesterol medium: -10.89

SMILES: O=S(=O)(NCCSc1nncn1C1CC1)c1ccccc1
Mtb glucose medium: -22.35
Mtb cholesterol medium: -13.24

SMILES: COc1cccc(-c2cccc(N3CCC(N[C@@H]4CCOC4)CC3)c2)c1
Mtb glucose medium: 57.44
Mtb cholesterol medium: 47.53

SMILES: CC(C)c1ccc(CNC(C)c2ccc(S(=O)(=O)N(C)C)cc2)cc1 (stereo not drawn)
Mtb glucose medium: 16.96
Mtb cholesterol medium: 10.44

SMILES: CCn1cc(-c2n[nH]c(=O)n2-c2ccc3c(c2)OCO3)c(C)n1
Mtb glucose medium: 20.31
Mtb cholesterol medium: -11.88 and 3.953

SMILES: O=C(Nc1cccs1)N1CC(c2nc(C3CC3)no2)C1
Mtb glucose medium: 4.963 and 7.808
Mtb cholesterol medium: -14.68

For reference, 2 entries once more:

| SMILES | Mtb glucose medium | Mtb cholesterol medium |
|---|---|---|
| `CC(C)CN1CCc2[nH]cnc2C12CCN(C(=O)c1cnn(C)c1)CC2` | -22.13 | -17.81 |
| `COc1ccc(CC(=O)Nc2cccnc2N2CCCC2)cc1OC` | 2.386 | -28.68 |